The values below come from the M2OR odorant receptor database.

Protein sequences, listed by entry. Tags and fused reporters are not part of them. Lines headed by an entry give the natural chain unless they say otherwise; changes in a name come on top.
UniProt Q8VEZ0: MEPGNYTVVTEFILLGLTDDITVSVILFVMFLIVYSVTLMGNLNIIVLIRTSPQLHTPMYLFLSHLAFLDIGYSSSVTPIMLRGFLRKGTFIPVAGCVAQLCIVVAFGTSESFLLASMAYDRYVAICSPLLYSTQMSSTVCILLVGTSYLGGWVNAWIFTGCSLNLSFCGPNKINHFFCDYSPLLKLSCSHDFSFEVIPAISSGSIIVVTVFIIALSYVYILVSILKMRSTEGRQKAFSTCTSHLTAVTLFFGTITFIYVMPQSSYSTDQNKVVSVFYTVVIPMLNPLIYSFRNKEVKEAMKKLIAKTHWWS

Common to all, as to conditions: stereoisomer not certain
For one experiment, the system named is T1, OR9G4.
T1 sequence (whole entry): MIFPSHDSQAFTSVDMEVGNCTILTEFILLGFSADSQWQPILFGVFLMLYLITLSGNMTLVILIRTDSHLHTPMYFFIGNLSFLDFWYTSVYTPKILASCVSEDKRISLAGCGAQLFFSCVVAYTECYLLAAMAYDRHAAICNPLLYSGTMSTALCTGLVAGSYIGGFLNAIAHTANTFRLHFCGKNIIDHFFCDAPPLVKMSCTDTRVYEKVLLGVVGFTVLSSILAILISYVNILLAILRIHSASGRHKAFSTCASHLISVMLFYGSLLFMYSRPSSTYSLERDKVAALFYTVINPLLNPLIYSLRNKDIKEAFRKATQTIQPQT
Put shortly: (§1)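 Whether a receptor–molecule pair is responsive (active) rests on the original authors' judgment that its measured signal was statistically different from baseline. Pairs without that judgment are non-responsive (inactive). Sources used varied assay methods, commonly transient luciferase assays in mammalian cell lines.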

Experiment [1] relates to T2, OR9G9.
T2 sequence (whole entry): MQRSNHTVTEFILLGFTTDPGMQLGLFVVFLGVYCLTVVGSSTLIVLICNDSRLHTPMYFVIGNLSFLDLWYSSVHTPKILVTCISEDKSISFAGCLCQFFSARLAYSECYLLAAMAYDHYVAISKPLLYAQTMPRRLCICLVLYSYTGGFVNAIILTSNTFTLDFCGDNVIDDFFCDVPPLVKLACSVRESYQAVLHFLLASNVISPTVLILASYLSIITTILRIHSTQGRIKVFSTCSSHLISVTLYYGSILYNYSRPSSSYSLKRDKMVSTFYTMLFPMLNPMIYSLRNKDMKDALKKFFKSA
In outline:
as §1

Experiment [2] concerns T3, OR9G9.
T3 sequence (whole entry): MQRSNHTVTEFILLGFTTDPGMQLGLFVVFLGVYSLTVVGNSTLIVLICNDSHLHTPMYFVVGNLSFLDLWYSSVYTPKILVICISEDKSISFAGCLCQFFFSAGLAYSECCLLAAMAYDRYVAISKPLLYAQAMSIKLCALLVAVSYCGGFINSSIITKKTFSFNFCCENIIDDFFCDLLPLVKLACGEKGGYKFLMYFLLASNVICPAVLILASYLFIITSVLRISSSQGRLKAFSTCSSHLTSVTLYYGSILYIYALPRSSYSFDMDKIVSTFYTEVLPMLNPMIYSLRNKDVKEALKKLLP
Put shortly:
as §1
This is another data set of the same source.

The next experiment addresses T4, OR9I1 (Homo sapiens) (UniProt Q8NGQ6).
T4 sequence (whole entry): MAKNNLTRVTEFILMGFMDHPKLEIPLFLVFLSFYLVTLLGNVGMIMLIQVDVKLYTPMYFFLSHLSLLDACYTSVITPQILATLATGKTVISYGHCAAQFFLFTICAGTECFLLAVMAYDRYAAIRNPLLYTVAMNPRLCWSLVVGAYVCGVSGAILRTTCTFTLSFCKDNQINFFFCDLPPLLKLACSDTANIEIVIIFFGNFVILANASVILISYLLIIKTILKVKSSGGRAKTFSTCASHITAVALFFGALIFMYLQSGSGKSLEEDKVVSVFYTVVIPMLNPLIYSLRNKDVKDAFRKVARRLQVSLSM
Put shortly: as §1

The target in the next experiment is T5, OR9K2 (Homo sapiens) (UniProt Q8NGE7).
T5 sequence (whole entry): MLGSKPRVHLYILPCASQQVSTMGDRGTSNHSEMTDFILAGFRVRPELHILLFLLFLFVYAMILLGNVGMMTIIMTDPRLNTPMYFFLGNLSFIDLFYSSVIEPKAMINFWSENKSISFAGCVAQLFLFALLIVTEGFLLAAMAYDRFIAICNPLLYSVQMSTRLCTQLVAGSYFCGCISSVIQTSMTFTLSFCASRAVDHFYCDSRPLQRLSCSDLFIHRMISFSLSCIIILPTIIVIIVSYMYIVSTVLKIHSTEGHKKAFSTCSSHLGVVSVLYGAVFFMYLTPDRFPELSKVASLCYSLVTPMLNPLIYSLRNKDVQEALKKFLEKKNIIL
In outline:
as §1

The test system of another experiment is T6, OR9Q1.
T6 sequence (whole entry): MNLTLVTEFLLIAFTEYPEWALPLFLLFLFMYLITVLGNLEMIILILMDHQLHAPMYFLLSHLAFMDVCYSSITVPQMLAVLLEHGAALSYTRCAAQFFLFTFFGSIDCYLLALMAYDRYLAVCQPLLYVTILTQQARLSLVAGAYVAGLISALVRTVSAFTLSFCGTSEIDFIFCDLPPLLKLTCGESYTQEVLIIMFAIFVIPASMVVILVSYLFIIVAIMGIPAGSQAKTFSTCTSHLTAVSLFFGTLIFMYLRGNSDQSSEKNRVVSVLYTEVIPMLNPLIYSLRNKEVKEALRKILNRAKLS
Put shortly: as §1

The next experiment addresses T7, OR9Q2 (Homo sapiens) (UniProt Q8NGE9).
T7 sequence (whole entry): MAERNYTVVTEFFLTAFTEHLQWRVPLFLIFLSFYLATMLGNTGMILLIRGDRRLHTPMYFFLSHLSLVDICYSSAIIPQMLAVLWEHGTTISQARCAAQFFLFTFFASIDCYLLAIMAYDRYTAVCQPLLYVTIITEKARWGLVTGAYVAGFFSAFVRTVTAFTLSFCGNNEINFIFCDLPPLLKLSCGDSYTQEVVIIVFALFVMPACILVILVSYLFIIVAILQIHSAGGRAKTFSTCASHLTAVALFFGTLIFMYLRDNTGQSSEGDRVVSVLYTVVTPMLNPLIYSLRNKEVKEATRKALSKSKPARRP
In outline:
as §1

For the next experiment, the system named is T8, OR9Q2.
T8 sequence (whole entry): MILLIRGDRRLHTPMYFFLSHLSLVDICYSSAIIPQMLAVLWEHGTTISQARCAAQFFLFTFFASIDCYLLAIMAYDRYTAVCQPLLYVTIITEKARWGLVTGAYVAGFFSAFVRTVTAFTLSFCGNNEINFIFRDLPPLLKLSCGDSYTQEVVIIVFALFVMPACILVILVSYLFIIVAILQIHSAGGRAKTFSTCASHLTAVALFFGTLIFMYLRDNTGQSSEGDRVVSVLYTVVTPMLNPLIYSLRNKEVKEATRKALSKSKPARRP
Put shortly:
as §1

The subject of the next experiment is T9, ORM2B.
T9 sequence (whole entry): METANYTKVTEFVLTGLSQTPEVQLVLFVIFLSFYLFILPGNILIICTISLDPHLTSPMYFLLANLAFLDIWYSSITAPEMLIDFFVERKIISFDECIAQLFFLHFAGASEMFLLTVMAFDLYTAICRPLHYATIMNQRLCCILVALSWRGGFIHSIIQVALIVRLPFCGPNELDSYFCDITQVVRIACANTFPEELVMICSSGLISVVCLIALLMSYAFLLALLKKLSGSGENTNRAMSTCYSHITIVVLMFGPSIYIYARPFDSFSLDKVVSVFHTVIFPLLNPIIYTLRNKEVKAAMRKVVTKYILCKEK
In outline: as §1

The target of another experiment is T10, Or10j5 (Mus musculus) (UniProt Q62007).
T10 sequence (whole entry): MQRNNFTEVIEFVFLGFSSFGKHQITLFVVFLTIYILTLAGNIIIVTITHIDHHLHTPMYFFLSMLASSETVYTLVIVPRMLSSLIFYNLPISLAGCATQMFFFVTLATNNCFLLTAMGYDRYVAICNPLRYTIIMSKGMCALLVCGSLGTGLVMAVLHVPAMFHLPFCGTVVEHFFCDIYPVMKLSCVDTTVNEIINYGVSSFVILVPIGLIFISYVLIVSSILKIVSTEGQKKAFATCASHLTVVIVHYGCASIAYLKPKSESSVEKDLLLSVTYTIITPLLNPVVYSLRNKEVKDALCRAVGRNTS
Put shortly:
as §1

The next experiment has as its target T11, Or1m1 (Mus musculus) (UniProt Q8VFM9).
T11 sequence (whole entry): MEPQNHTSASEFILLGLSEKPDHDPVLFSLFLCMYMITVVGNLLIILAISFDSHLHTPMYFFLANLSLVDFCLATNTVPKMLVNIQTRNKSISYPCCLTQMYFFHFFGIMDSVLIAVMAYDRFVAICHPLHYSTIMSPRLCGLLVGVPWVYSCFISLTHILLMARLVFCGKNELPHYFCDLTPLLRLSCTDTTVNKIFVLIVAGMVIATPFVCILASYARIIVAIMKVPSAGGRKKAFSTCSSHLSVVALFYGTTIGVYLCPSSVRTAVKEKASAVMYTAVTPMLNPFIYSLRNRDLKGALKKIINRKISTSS
In outline: as §1

For the next experiment, the target named is T12, Or2c1 (Mus musculus) (UniProt P23275).
T12 sequence (whole entry): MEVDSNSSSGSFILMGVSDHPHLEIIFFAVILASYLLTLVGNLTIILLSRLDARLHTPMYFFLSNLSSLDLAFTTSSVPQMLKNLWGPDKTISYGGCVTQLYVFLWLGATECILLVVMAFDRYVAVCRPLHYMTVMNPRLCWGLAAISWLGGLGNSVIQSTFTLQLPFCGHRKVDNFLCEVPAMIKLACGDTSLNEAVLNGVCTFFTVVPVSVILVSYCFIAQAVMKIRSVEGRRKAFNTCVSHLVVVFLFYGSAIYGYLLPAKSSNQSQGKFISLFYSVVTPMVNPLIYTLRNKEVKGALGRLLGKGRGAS
In outline: as §1

In another experiment the target is T13, Or5ar1 (Mus musculus) (UniProt Q8VGS3).
T13 sequence (whole entry): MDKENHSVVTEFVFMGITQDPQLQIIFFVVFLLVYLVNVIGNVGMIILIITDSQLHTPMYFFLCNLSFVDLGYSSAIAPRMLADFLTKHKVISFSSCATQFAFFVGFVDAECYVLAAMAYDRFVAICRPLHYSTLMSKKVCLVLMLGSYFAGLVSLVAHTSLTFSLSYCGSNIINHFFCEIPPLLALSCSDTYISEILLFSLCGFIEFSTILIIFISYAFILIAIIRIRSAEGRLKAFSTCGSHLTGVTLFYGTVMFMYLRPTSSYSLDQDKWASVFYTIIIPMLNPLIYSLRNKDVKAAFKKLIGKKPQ
In outline:
as §1

In a further experiment the target is Or5p57 (Mus musculus) (UniProt Q8VEZ0). Put shortly:
as §1

The list shows a part of the results, in another mix than the full data. Calls are pooled over several reports, among them a noisy single-well screen. The list shows a part of the results. The list shows a part of the results.
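Also: active if original authors judged signal statistically different from baseline.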

With `CCCCCCCCOC(C)=O`, the “odorant receptor agonist call” value in the experiment on OR9G4, in the experiment on OR9G9 [1], in the experiment with OR9G9 [2], with OR9I1 (Homo sapiens), in the experiment with OR9K2 (Homo sapiens) and with OR9Q1 was “inactive” each time. In addition, the “odorant receptor agonist call” value in the experiment with OR9Q2 (Homo sapiens), with OR9Q2 and in the experiment on ORM2B was “inactive” throughout.
Take `CCC1(O)C2(C)CCC(C2)C1(C)C` (stereo not drawn): the “odorant receptor agonist call” value in the experiment on OR9G4, in the experiment on OR9G9 [1], in the experiment with OR9G9 [2], with OR9I1 (Homo sapiens), with OR9K2 (Homo sapiens) and with OR9Q1 was “inactive” each time. For the same compound, the “odorant receptor agonist call” value with OR9Q2 (Homo sapiens), in the experiment with OR9Q2 and in the experiment with ORM2B was “inactive” each time.
`CC1CCC(C(C)C)C(O)C1` (stereo not drawn): the “odorant receptor agonist call” value with OR9G4, in the experiment with OR9G9 [1], with OR9G9 [2], with OR9I1 (Homo sapiens), in the experiment with OR9K2 (Homo sapiens) and in the experiment on OR9Q1 was “inactive” throughout. The “odorant receptor agonist call” value with OR9Q2 and in the experiment on ORM2B was “inactive” each time. In addition, the “odorant receptor agonist call” value in the experiment with OR9Q2 (Homo sapiens) was “active”.
On to `CCCCCCCC=CC=O`, for which the “odorant receptor agonist call” value in the experiment with OR9G4, in the experiment on OR9G9 [1], with OR9G9 [2], with OR9I1 (Homo sapiens), in the experiment with OR9Q1 and with OR9Q2 (Homo sapiens) was “inactive” in each case. The “odorant receptor agonist call” value with OR9Q2 and with ORM2B was “inactive” throughout. For the same compound, the “odorant receptor agonist call” value with OR9K2 (Homo sapiens) is “active”.
Turning to `CC(C)(C)c1ccc(CCC=O)cc1`, the “odorant receptor agonist call” value in the experiment on OR9G4, in the experiment with OR9G9 [1], in the experiment with OR9G9 [2], with OR9I1 (Homo sapiens), in the experiment with OR9K2 (Homo sapiens) and with OR9Q1 was “inactive” throughout. Moreover, the “odorant receptor agonist call” value with OR9Q2 (Homo sapiens), with OR9Q2 and in the experiment on ORM2B was “inactive” each time.
As to `CCC=CCCO`, the “odorant receptor agonist call” value in the experiment with OR9G4, in the experiment with OR9G9 [1], in the experiment with OR9G9 [2], with OR9I1 (Homo sapiens), in the experiment with OR9K2 (Homo sapiens) and in the experiment with OR9Q1 was “inactive” throughout. Further, the “odorant receptor agonist call” value with OR9Q2 (Homo sapiens), in the experiment on OR9Q2 and in the experiment on ORM2B was “inactive” each time.
With `CCCCCC(=O)O`, the “odorant receptor agonist call” value with OR9G4, in the experiment with OR9G9 [1], in the experiment on OR9G9 [2], with OR9I1 (Homo sapiens), in the experiment with OR9K2 (Homo sapiens) and with OR9Q1 was “inactive” throughout. Besides, the “odorant receptor agonist call” value with OR9Q2 (Homo sapiens), with OR9Q2, with ORM2B, with Or10j5 (Mus musculus), with Or1m1 (Mus musculus) and with Or2c1 (Mus musculus) was “inactive” throughout. Further, the “odorant receptor agonist call” value with Or5ar1 (Mus musculus) and with Or5p57 (Mus musculus) was “inactive” each time.
